The target of this test is acid ceramidase (Homo sapiens, UniProt Q13510). The experiment in a line: Acid ceramidase inhibition, biochemical fluorescent assay with cell lysates overexpressing acid ceramidase, substrate Rbm14-12. To be noted: read-out: IC50 hACR, substrate Rbm14-12 6.3 μM, pH 4.5.

Amino acid sequences for entries named in this document (tags omitted). Residues count along the entry.
UniProt Q13510, 22-395 limits assumed: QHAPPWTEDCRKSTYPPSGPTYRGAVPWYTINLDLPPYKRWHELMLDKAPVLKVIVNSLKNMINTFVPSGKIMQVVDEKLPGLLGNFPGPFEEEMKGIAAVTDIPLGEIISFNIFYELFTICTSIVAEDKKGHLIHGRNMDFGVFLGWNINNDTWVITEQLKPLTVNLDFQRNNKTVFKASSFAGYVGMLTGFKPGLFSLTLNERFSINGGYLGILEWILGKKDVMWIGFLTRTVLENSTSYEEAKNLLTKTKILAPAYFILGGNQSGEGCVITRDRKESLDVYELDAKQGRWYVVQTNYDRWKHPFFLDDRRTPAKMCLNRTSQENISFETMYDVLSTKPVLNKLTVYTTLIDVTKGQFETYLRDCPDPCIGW

The structures given here were assigned with low confidence; some may be wrong. Bounds are passed on as bounds.

As usually defined, the IC50 is the point on the concentration scale where inhibition reaches its midpoint.

With `CN1CC2CCC1CN2c1cccc2c1ncn2C(=O)NCCOc1ccccc1` (stereo not drawn), the IC50 is under 200 nM. Next, `N#CCCN1CCN(c2cccc3c2ncn3C(=O)NCCOc2ccccc2)CC1`: under 200 nM; `COc1nc2cc(N3CCOCC3)ncc2n1C(=O)NCCCc1ccccc1`: under 200 nM.

(Values after patent US20220380319A1 (Bial - R&D Investments, S.A., priority 2019, published 2022).)
